## Library screen at single concentrations

Data taken from ChEMBL document CHEMBL3988442, “University of Dundee, Small-Polar-MMV Screening Library” (2021).

Mtb cholesterol medium: 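Whole-cell growth test on Mycobacterium tuberculosis, read after 4 days in a medium based on cholesterol and the lipid DPPC; the read-out is not stated. Concentration: 50 µM. Higher reads as more growth inhibition (inferred: compounds with an IC50 in retests scored well above the rest). Size under these conditions: about 69,000 compounds, about 370 of them at 50% or above in at least one test.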
Mtb glucose medium: 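Whole-cell growth test on Mycobacterium tuberculosis, read after 3 days in glucose-containing 7H9 medium; the read-out is not stated. Concentration: 50 µM. Higher reads as more growth inhibition (inferred: compounds with an IC50 in retests scored well above the rest). Of about 69,000 compounds tested this way, about 760 (1.1%) reached 50% or more in at least one test.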

Each number is a percent effect as filed. The controls that fix the scale are not given in the record; negative values are as filed. Compounds were drawn at random from those tested, without regard to their results. Two or more numbers in one place are separate tests of the same structure; such repeats can differ widely.

| Compound | Mtb cholesterol medium | Mtb glucose medium |
|---|---|---|
| `CN1CCN(C2CCN(CCOc3ccccc3)CC2)C1=O` | -3.08% | 41.12% |
| `CN(C(=O)Cn1nc(-c2ccccc2F)ccc1=O)C1CCS(=O)(=O)C1` (stereo not given) | 6.14% | -4.357% |
| `COCc1nc2cc(NCc3nc(C)cs3)ccc2o1` | -0.7619% | -5.349% and 6.152% |
| `O=C(O)C(F)(F)F.O=C(O)C(F)(F)F.O=S(=O)(c1ccccc1)N1CCC2(CCCN2Cc2cccnc2)C1` (stereo not given) | -7.862% and -5.661% | -6.281% |
| `COC1CCC(N(C)c2ccnc(N(C)C)n2)CC1` (stereo not given) | 4.645% and -1.935% | -1.448% |
| `Cc1cc(N2CCC3(CCC(=O)N(CC4CC4)C3)CC2)nc(N)n1` | 3.782% | 0.9191% |
| `CC(Cn1ccnc1)NC(=O)C1(c2ccc3c(c2)OCCO3)CCCC1` (stereo not given) | -3.832% | -2.634% |
| `Cc1ccccc1CN1CCN(C(=O)c2cnc(C3CC3)[nH]c2=O)CC1` | -31.11% | -31.35% |
| `O=C(O)C(F)(F)F.[H][C@@]12C[C@@H](Oc3cccc(F)c3)CN1CCN(C(=O)c1cnccn1)C2` | 9.413% | 11.32% and -2.534% |
| `Cn1ncc2c(N3CCCC(C)(O)C3)nc(C(C)(C)C)nc21` (stereo not given) | 8.841% | -1.273% |
| `CC(=O)NCc1nnc2n1CCN(Cc1cccs1)C2.O=C(O)C(F)(F)F` | -9.316% | 0.3632% and -0.2789% |
| `COC(=O)C1CCN(C(=O)c2nnc3ccc(C)cc3n2)CC1` | -4.824% | 5.466% |
| `CCOC(=O)C1CCN(C(=O)CN2CCCC2c2ccsc2)CC1` (stereo not given) | 5.914% | 0.8577% and -4.241% |
| `CCN(Cc1ccc(S(C)(=O)=O)cc1)Cc1nc(COC)no1` | -0.03739% | 22.68% |
| `Cc1cccc(CN2CCCC3(CCN(CC4CCCO4)CC3)C2)n1.O=C(O)C(F)(F)F.O=C(O)C(F)(F)F` (stereo not given) | -1.049% | -17.68% |
| `O=C(c1ccccc1F)N1CCN(c2ccc(-n3cccn3)nn2)CC1` | -23.02% | -18.09% |
| `CNC(=O)[C@@H]1C[C@@H](N)CN1C1CCN(c2ccccc2F)CC1` | -9.73% | 7.312% |
| `COCC(=O)N1CCOC2(CCCN(c3cnccn3)C2)C1.O=C(O)C(F)(F)F` (stereo not given) | -5.881% | 11.06% |
| `OCCN1CCN(CC(O)c2ccc(C(F)(F)F)cc2)CC1` (stereo not given) | -22.2% | -33.1% |
| `Cc1nsc(C(=O)NCCc2ccccc2)n1` | 54.94% | 54.04% |
| `CO[C@H]1CCN(C(=O)Cc2ccccn2)[C@H]1Cc1ccncc1` | -20.89% | -9.107% |
| `O=C(c1cc(C2CC2)nc2onc(-c3ccccc3)c12)N1CC(O)C1` | 31.88% | 8.155% and 9.594% |
| `CS(=O)(=O)N1CCN(Cc2csc(-c3ncccn3)n2)CC1` | -5.907% and -11.13% | 11.83% |
| `COCCN(C)CCN1CC2(CCN(C3CCCOC3)CC2)OC1=O` (stereo not given) | -48.11% | -54.57% |
| `CC(Cn1ccnc1)NCc1ccc2nonc2c1` (stereo not given) | 1.625% | 5.107% |
| `O=C(O)C(F)(F)F.O=C(O)C(F)(F)F.[H][C@]12CCCN(c3ncc(C)cn3)[C@@]1([H])CN(CC(=O)N(C)C)C2` | -5.42% | -5.915% and -0.8604% |
| `CCc1noc(CN(C)CC(c2cccs2)N2CCOCC2)n1` (stereo not given) | -0.231% | -7.085% and -1.85% |
| `CCC(C(=O)NC1CCCCC1)n1ccc2ncccc2c1=O` (stereo not given) | -26.54% | 0.3039% |
| `Cc1nc(NC(=O)C(C)S(C)(=O)=O)sc1Cc1ccc(F)cc1` (stereo not given) | -12.7% | -36.56% |
| `[H][C@@]12CS(=O)(=O)C[C@]1([H])N(Cc1cccc(OC(C)C)c1)CCN2CCC` | 6.836% | -16.09% |
| `CCn1cnnc1CNC(=O)NC(C)C(C)C` (stereo not given) | -23.77% | 5.585% |
| `CNC(=O)Cc1ccc(NC(=O)NCC(C)c2ncc(C)s2)cc1` (stereo not given) | 15.28% | 1.67% and 12.47% |
| `O=C(O)C(F)(F)F.[H][C@@]12CCN(c3nncs3)C[C@]1([H])O[C@@H](C(=O)NCC1CCOCC1)C2` | 14.45% | 29.64% |
| `CCCc1[nH]n(C)c(=N)c1-c1ccc2c(c1)OCO2` | 18.54% | -6.567% |
| `CS(=O)(=O)c1ccc2c(c1)N(C(=O)Cc1ccc(F)cc1)CCC2` | -15.39% | -27.48% |
| `Cc1ccsc1C(=O)Nc1cnn(CC(=O)NC2CCCC2)c1` | -32.84% and -9.343% | -41.62% |
| `CC(C)Cc1cc(C(=O)NCC(O)CN2CCCCCC2)on1` (stereo not given) | -7.732% and 8.528% | 8.023% |
| `COCCOCC(=O)N1CCc2cc(Cl)cc(Cl)c2C1` | 18.18% | 25.03% |
| `CN1C[C@@H](NC(=O)C2CC2)C[C@H]1c1nc(-c2cnccn2)no1` | -1.487% | 2.337% and -9.443% |
| `O=c1[nH]c(=O)n(CC(O)c2ccc(F)cc2F)cc1Cl` (stereo not given) | 3.834% | 33.9% |
| `CN(Cc1ccc(C#N)cc1)C(=O)c1ccn(C)c(=O)c1` | -2.404% | -8.372% |
| `CN1CC2(CCN(C(=O)c3ccc4nccnc4c3)CC2)CC1=O` | 1.163% and 3.227% | -0.4242% |
| `Cc1cnn(CC2CN(c3ncnc4ccsc34)CCO2)c1` (stereo not given) | 19.03% and 13.09% | 33.9% |
| `CS(=O)(=O)N1CCC(NC(=O)COc2ccccc2Cl)CC1` | -5.819% | -9.623% |
| `COC(=O)CN(C(=O)C(C)c1c(F)cccc1F)c1cccc(C)n1` (stereo not given) | 4.116% | -5.567% |
| `Cc1nc(CN(C)C2CCN(CCn3cc(C#N)cn3)C2)no1` (stereo not given) | -16.03% | -7.71% |
| `CCC(CC)(CCCNC(=O)c1c(C)noc1C)C1OCCO1` | 3.871% | -30.73% and 4.275% |
| `COCC1CN(c2ccc(C#N)c(Cl)c2)CCO1` (stereo not given) | 13.46% | -3.594% and -0.9278% |
| `CC1CCN(Cc2ccccc2CNC(=O)C2CNC(=O)N2)CC1` (stereo not given) | -15.79% | -28.05% |
| `CCOCC(O)c1nc2c([nH]1)CC(C)(C)CNC2=O` (stereo not given) | -4.867% | -15.33% |
| `Cc1ccc(C(=O)N2CCC3(CCC(=O)N(CCCO)C3)CC2)c(O)c1` | -22.87% | -26.24% |
| `Cc1ccccc1C(=O)N1CCC(n2nnc3cc(F)ccc32)CC1` | 2.5% | 6.057% |
| `CCn1cc(NC(=O)c2c(C)nn(C)c2C)c(C(N)=O)n1` | -34.02% | 0.4832% and -27.62% |
| `Cc1ccccc1OC1CCN(C(=O)CNC(=O)N(C)C)CC1` | -6.304% | 18.35% |
| `Cc1cc(C(=O)N2CCC3(CC2)CC(c2cccnc2)C(=O)N3)no1.O=C(O)C(F)(F)F` (stereo not given) | 5.302% | -9.968% |
| `c1nc(NCc2cc3n(n2)CCN(C2CCCCC2)C3)c2nc[nH]c2n1` | 13.71% | 6.861% and 12.69% |
| `Cc1cc(C2CCCN(C(=O)c3cccnc3)C2)ccn1` (stereo not given) | 1.453% | 6.311% |
| `CN(Cc1cc2cc(F)ccc2[nH]1)C(=O)C1CC(=O)N(C2CCCC2)C1` (stereo not given) | 0.2976% | 26.61% |
| `Cc1noc(C2CN(S(=O)(=O)C3CC3)Cc3ccnn3C2)n1` (stereo not given) | 1.843% | 10.31% |
| `O=S1(=O)c2ccccc2C(O)CN1CCO` (stereo not given) | -12.83% | -13.27% |
| `Cn1nc2c(cc1=O)CN(CC(=O)Nc1cc(C(C)(C)C)no1)CC2` | -35.7% | -18.61% |
| `CN(C(=O)CCC(F)(F)F)c1cccc2ncccc12` | 5.995% | 19.89% |
| `O=C(Cn1ncc(N2CCCC2)cc1=O)Nc1ccc2nccnc2c1` | 15.56% | 13.1% |
| `c1cn(-c2ccc(CN3CCCC3)cc2)c(-c2cc3n(n2)CCNC3)n1` | 4.561% | 2.372% |
| `CN(Cc1ccccc1)C(=O)[C@@H]1Cc2[nH]cnc2CN1C` | -16.89% | -32.76% and -8.058% |

The last 3 entries again:

Compound,Mtb cholesterol medium,Mtb glucose medium
O=C(Cn1ncc(N2CCCC2)cc1=O)Nc1ccc2nccnc2c1,15.56%,13.1%
c1cn(-c2ccc(CN3CCCC3)cc2)c(-c2cc3n(n2)CCNC3)n1,4.561%,2.372%
CN(Cc1ccccc1)C(=O)[C@@H]1Cc2[nH]cnc2CN1C,-16.89%,-32.76% and -8.058%